# Measured values reported in PubChem BioAssay AID1347076 (National Center for Advancing Translational Sciences (NCATS), 2019).
# About 13,000 (3.2%) of roughly 400,000 compounds were called active. Inconclusive results, whose numbers are uncertain, are shown with a selection of clear calls. The call rests on the fitted dose curve; in most records, active means well fitted cell-killing curve with a large enough effect; inconclusive means small, poorly fitted or top-dose-only effect, or effect the other way; inactive means flat fitted curve, though single readings scatter. Where the call is inconclusive, the potency comes from a doubtful curve fit. The source holds several records for some structures; these can differ, active in one and inactive in another.
# Experiment: qHTS assay for MDR1-selective chemotherapeutics: Primary screen using the drug-selected MDR subline cells KB-V1; further: nearly all actives have a fitted effect of over 60% in size
# Details: KB-V1 MDR cells viability, CellTiter-Glo, 72 h; activity change, negative = cytotoxicity: at 46.1 µM (top of the series)
# In short: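 Luminescent ATP read-out (CellTiter-Glo, 10 min) measures survival of drug-selected KB-V1 MDR cells after 72 h, 37 degrees C compound exposure. Medium: phenol-red-free DMEM, 10% FBS. Values from fitted concentration-response curves.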
# On the % scale 0 is the no-effect control and ±100 the full control effect; potency means the concentration at half of the fitted maximal effect.
Compound,Potency,"activity change, negative = cytotoxicity"
COc1cc(/C=N/OCC(=O)NC2CCCCC2C)ccc1OCc1ccc(Cl)cc1 (centres undefined),active: 8.2 µM,–
COc1ccccc1C(=O)N1CCCC(c2nc(-c3cc(OC)c(OC)c(OC)c3)no2)C1 (centres undefined),active: 4.61 µM,–
COc1cc(C2C(C#N)=C(C)NC3=C2C(=O)c2ccccc23)cc(OC)c1OC (centres undefined),"inconclusive: 18.4 µM [cytotoxic, single point]",–
CCOC(=O)N1CCC(Nc2c(NCCCN(C)Cc3ccccc3)c(=O)c2=O)CC1,"inconclusive: 29.1 µM [rising, single point]",–
COCCCNC(=O)CN1C(=O)COc2ccc(S(=O)(=O)N3CCOCC3)cc21,"inconclusive: 6.51 µM [rising, full curve]",–
Cc1cccc(C(=O)c2cnc3ccccc3c2-c2ccccc2)c1,"inconclusive: 23.1 µM [cytotoxic, single point]",–
COc1ccc(N2CCN(C(=O)c3cn(C4CCCCC4)c(=O)c4c3c3ccccc3n4C)CC2)cc1,–,inactive: 13.1%
COC(=O)C[C@H](NC(=O)Cn1cc(C)c(=O)[nH]c1=O)C(=O)OC,–,inactive: -3.62%
CC(=O)Nc1ccc(Nc2nc(Nc3ccc(Cl)cc3)nc(N3CCOCC3)n2)cc1,–,inactive: -9.05%
COc1cccc(CNC(=O)CCc2nc3cc(S(=O)(=O)N4CCOCC4)ccc3n2C)c1,–,inactive: 5.26%
CCOC(=O)C1CCN(C(c2cc3ccc(C)c(C)c3[nH]c2=O)c2nnnn2C2CCCCC2)CC1 (centres undefined),active: 16.4 µM,–
COC(=O)c1cc(OC)c(OC)cc1NC(=O)CN1CCCCC1,active: 16.4 µM,–
COC(=O)CSCc1nc(-c2ccc(C(=O)OC)cc2)oc1C,–,inactive: 15.2%
CCOC(=O)Cn1nnnc1CN(Cc1cccs1)Cc1cc2cc(C)ccc2[nH]c1=O,–,inactive: -21.8%
CCCCNC(=S)N1CCN(C(c2ccccc2)c2ccccc2)CC1,"inconclusive: 20.6 µM [cytotoxic, single point]",–
CCC(C)N(C(=O)C(F)(F)F)C(C(=O)NC1CCCCC1)c1ccncc1 (centres undefined),"inconclusive: 14.6 µM [cytotoxic, partial curve, poor fit]",–
Cc1cc(C(=O)N/N=C/c2cccc([N+](=O)[O-])c2O)n[nH]1,–,inactive: -4.12%
CCN(CC)S(=O)(=O)c1ccc(N2CCOCC2)c(NC(=O)c2cccc3c(=O)c(C)c(-c4ccccc4)oc23)c1,active: 20.6 µM,–
Cc1ccc(N(C)S(=O)(=O)c2ccc(-c3cnc(C4CC4)o3)cc2)cc1,active: 2.91 µM,–
CC(OC(=O)c1cccc(S(=O)(=O)N2CCCCC2)c1)C(=O)NC1CCCCC1C (centres undefined),"inconclusive: 7.31 µM [cytotoxic, partial curve]",–
CN1CCN(C(=O)Nc2ccccc2)CC1,"inconclusive: 20.6 µM [cytotoxic, single point]",–
COc1ccc(-n2sc3ccccc3c2=O)cc1,"inconclusive: 20.6 µM [cytotoxic, single point]",–
COCCn1c(=NC(=O)CSC(C)=O)sc2cc(F)ccc21,"inconclusive: 20.6 µM [cytotoxic, single point]",–
Cc1ccnc(NC(=O)c2ccccc2[N+](=O)[O-])c1,"inconclusive: 23.1 µM [rising, partial curve, poor fit]",–
CC(=O)NCCc1nc2ccccc2n1CCc1ccccc1,–,inactive: 2.33%

Compound,Potency,"activity change, negative = cytotoxicity"
Cc1nc([N+](=O)[O-])c(Sc2nc3ccc([N+](=O)[O-])cc3[nH]2)n1Cc1ccccc1,–,inactive: -21.1%
O=[N+]([O-])c1ccc(S(=O)(=O)N2CCN(c3ccccn3)CC2)cc1,–,inactive: -7.08%
CCc1ccccc1NC(=O)C/C(C)=N/NC(=O)COc1ccccc1C,"inconclusive: 18.4 µM [rising, single point]",–
CCCN(CC(=O)Nc1ccccc1C)C(=O)c1ccc(=O)n(Cc2ccccc2)n1,–,inconclusive: -67%
COc1ccc(C(=O)NCC(=O)OCC(=O)Nc2ncc(Cl)cc2Cl)cc1[N+](=O)[O-],"inconclusive: 20.6 µM [rising, single point]",–
OC[C@H]1NC[C@@H](O)[C@@H]1O,–,inactive: 3.4%
Cc1ccccc1OCC(=O)N/N=C/c1cn(C)c2ccccc12,–,inactive: 1.57%
Cn1nnnc1SCC(=O)Nc1nc(-c2ccccc2)c(-c2ccccc2)o1,–,inactive: -19.3%
Cc1ccc2c(c1)N(CCC(=O)NCC1COc3ccccc3O1)C(=O)CO2 (centres undefined),"inconclusive: 29.1 µM [cytotoxic, single point]",–
C[C@H](CO)N1C[C@H](C)[C@H](CN(C)C(=O)Nc2ccccc2)OCc2cnnn2CCCC1=O,–,inactive: -2.42%
CN(C)CCCNC(=O)c1cccc(-c2cnc3cccnn23)c1,–,inactive: 4.33%
Cc1cc(N/N=C/c2ccc([N+](=O)[O-])o2)nc2ccccc12,"inconclusive: 29.1 µM [cytotoxic, single point]",–
COc1ccc(NC(=O)C2Cc3c(-c4ccc5c(c4)OCO5)ccnc3O2)cn1 (centres undefined),active: 20.6 µM,–
Cc1oc(-c2ccc(-c3ccccc3)cc2)nc1CN1CCN(CC(=O)N(C)C)CC1,–,inactive: -25.7%
Cc1scc(-c2n[nH]c(=S)n2C(C)c2ccccc2)c1C (centres undefined),"inconclusive: 20.6 µM [cytotoxic, single point]",–
Cc1cc(C)nc(/N=C(\N)Nc2ccc(OCc3ccccc3)cc2)n1,"inconclusive: 18.4 µM [cytotoxic, single point]",–
CCOC(=O)N1CCN(Cc2nnc(-c3ccccc3C)o2)CC1,–,inactive: -11.2%
O=C(NCc1ccccc1Cl)c1ccccc1Oc1ccccc1,active: 13 µM,–
CN(CC(=O)Nc1cccc(C(F)(F)F)c1)Cc1ccccc1,"inconclusive: 18.4 µM [cytotoxic, partial curve]",–
Cc1ccccc1OCC(=O)NCC(c1ccc(Cl)cc1)N1CCOCC1 (centres undefined),"inconclusive: 23.1 µM [cytotoxic, single point]",–
Cc1cc(Br)ccc1OCCOCCN1CCCC1,–,inactive: 1.36%
COc1cccc(C(=O)COc2cccc(NC(=O)c3cccc([N+](=O)[O-])c3)c2)c1,"inconclusive: 20.6 µM [cytotoxic, single point]",–
Cc1ccc(CNCc2ccc3c(c2)OCO3)cc1,"inconclusive: 20.6 µM [cytotoxic, single point]",–
CCCCOc1ccc(S(=O)(=O)Nc2ccc(-c3ccc(N4CCCCC4)nn3)cc2)cc1,–,inactive: 11.6%

# Laid out differently: entries from further up.
Compound	Potency	activity change, negative = cytotoxicity
COC(=O)C[C@H](NC(=O)Cn1cc(C)c(=O)[nH]c1=O)C(=O)OC	–	inactive: -3.62%
Cc1cc(C(=O)N/N=C/c2cccc([N+](=O)[O-])c2O)n[nH]1	–	inactive: -4.12%
COc1ccc(NC(=O)C2Cc3c(-c4ccc5c(c4)OCO5)ccnc3O2)cn1 (centres undefined)	active: 20.6 µM	–
Cc1oc(-c2ccc(-c3ccccc3)cc2)nc1CN1CCN(CC(=O)N(C)C)CC1	–	inactive: -25.7%
Cc1scc(-c2n[nH]c(=S)n2C(C)c2ccccc2)c1C (centres undefined)	inconclusive: 20.6 µM [cytotoxic, single point]	–
Cc1cc(Br)ccc1OCCOCCN1CCCC1	–	inactive: 1.36%
COc1cccc(C(=O)COc2cccc(NC(=O)c3cccc([N+](=O)[O-])c3)c2)c1	inconclusive: 20.6 µM [cytotoxic, single point]	–
Cc1ccc(CNCc2ccc3c(c2)OCO3)cc1	inconclusive: 20.6 µM [cytotoxic, single point]	–
CCCCOc1ccc(S(=O)(=O)Nc2ccc(-c3ccc(N4CCCCC4)nn3)cc2)cc1	–	inactive: 11.6%
